Reference: the supplement of paper PMC12823440, “Inhibitors supercharge kinase turnover through native proteolytic circuits” (Nature, 2025)
Some of the results follow. The calls rarely recur for the same compound in another form.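 In K562 cells expressing nanoluciferase-fused kinases, luminescence was recorded at 4 h intervals between 2 and 18 h, normalized as percent of control with DMSO at 100% and a positive control at 0%. A significant (2 sigma) signal drop marks a time point as decreased. The authors' rule for a hit is not shown and takes in more than the number of time points.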

Sequences of proteins named here, by UniProt entry; tags and fusion partners are left off. A change or cut given only in a name is not applied to a line headed by its entry.
UniProt O75460: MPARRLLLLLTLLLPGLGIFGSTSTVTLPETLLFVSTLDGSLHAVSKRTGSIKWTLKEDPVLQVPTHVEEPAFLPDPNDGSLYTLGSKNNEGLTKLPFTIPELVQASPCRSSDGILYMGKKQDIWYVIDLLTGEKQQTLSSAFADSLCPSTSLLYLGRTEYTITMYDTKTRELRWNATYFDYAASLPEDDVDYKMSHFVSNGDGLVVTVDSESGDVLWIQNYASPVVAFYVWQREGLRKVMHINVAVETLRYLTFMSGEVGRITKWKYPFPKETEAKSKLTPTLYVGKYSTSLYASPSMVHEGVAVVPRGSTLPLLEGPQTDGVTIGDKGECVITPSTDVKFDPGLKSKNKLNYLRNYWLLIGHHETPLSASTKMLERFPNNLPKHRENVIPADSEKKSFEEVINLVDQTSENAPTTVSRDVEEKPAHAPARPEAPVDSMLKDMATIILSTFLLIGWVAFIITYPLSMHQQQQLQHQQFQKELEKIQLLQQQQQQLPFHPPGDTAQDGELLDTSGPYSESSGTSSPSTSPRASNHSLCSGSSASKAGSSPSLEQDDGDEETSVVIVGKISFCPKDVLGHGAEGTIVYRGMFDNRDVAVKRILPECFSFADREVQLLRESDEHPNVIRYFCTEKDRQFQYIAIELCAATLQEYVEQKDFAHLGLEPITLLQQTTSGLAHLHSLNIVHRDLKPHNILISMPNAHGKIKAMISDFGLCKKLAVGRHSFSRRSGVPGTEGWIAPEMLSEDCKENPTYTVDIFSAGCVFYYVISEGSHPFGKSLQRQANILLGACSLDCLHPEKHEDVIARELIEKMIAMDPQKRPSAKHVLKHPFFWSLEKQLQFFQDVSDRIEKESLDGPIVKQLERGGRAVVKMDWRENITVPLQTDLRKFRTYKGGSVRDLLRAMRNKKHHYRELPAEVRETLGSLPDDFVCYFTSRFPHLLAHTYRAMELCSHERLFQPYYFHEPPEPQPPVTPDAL
UniProt P11362, whole entry, looked up: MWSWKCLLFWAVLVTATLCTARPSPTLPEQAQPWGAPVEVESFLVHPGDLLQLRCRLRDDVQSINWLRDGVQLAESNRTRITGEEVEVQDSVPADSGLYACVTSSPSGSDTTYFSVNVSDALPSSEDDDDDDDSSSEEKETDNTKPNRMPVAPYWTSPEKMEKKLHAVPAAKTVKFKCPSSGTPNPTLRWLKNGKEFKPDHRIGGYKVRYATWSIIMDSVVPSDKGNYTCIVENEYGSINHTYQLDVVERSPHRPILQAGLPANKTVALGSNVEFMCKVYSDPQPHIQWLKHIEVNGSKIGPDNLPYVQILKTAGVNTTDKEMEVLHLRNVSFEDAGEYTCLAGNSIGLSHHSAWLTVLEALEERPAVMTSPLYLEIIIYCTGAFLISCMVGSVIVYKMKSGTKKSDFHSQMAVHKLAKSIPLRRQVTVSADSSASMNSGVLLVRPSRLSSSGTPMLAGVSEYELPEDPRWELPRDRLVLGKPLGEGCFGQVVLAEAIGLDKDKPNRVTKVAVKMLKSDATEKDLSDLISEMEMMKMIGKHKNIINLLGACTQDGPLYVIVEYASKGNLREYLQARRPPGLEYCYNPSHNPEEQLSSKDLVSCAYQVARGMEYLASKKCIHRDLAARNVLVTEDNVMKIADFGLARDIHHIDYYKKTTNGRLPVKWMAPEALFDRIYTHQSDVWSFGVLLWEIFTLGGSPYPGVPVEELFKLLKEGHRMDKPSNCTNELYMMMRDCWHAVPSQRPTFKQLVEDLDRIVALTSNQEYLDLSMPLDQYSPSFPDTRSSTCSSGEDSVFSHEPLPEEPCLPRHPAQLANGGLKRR
UniProt P21802, whole entry, looked up: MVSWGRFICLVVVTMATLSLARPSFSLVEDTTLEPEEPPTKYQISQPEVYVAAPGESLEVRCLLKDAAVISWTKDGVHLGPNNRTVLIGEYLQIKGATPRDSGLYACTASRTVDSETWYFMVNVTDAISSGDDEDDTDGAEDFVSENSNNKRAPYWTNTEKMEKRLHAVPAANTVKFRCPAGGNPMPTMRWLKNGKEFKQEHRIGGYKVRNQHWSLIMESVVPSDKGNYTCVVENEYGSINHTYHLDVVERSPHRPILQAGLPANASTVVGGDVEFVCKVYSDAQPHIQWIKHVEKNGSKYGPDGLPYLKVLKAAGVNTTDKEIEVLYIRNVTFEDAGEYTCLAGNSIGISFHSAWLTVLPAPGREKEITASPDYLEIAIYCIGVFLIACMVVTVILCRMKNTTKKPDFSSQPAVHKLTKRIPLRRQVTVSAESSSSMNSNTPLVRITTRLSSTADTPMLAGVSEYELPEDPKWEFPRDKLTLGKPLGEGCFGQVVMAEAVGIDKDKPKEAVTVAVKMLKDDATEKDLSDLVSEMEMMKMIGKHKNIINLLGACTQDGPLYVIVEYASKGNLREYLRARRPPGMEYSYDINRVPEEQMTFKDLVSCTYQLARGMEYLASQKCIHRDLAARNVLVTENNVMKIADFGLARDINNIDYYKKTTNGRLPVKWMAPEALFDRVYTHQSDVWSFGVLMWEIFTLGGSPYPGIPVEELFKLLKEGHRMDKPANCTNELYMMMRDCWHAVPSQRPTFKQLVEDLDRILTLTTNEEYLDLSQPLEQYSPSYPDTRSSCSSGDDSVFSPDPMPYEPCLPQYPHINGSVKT
UniProt P22607, whole entry, looked up: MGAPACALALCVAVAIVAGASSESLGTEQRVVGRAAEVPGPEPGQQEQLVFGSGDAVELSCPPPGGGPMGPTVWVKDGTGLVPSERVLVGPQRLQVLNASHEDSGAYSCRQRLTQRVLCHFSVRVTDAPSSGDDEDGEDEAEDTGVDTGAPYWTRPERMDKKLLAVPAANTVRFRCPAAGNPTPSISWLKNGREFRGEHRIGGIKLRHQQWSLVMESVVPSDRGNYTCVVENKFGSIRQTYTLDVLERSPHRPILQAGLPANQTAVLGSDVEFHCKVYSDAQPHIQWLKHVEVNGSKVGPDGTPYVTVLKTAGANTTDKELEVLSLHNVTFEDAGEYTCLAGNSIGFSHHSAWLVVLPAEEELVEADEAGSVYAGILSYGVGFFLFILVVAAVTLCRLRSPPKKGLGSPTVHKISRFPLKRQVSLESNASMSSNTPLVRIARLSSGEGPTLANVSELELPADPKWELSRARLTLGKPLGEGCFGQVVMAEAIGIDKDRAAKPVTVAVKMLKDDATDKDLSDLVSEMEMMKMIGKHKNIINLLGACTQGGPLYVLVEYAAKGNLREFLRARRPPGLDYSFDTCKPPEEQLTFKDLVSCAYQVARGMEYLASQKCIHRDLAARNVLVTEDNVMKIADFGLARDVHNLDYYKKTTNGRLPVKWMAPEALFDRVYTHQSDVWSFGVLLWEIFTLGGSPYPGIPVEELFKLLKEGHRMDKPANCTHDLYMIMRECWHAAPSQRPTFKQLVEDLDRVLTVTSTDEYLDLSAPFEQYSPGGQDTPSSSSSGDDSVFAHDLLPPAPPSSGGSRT
UniProt P06241, whole entry, looked up: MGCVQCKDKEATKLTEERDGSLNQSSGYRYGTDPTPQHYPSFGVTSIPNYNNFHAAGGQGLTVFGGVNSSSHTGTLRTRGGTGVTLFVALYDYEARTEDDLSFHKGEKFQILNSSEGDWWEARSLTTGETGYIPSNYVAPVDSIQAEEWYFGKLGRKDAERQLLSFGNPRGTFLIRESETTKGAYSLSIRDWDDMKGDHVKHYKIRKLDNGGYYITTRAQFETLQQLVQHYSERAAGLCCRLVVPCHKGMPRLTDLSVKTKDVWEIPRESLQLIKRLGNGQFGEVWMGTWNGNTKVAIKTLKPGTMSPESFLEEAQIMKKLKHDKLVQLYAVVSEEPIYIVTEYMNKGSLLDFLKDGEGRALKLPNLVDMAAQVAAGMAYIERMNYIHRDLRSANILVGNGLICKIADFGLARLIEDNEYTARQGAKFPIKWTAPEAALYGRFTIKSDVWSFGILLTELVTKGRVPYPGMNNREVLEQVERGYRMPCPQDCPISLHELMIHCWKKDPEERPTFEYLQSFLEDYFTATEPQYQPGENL
UniProt P49840: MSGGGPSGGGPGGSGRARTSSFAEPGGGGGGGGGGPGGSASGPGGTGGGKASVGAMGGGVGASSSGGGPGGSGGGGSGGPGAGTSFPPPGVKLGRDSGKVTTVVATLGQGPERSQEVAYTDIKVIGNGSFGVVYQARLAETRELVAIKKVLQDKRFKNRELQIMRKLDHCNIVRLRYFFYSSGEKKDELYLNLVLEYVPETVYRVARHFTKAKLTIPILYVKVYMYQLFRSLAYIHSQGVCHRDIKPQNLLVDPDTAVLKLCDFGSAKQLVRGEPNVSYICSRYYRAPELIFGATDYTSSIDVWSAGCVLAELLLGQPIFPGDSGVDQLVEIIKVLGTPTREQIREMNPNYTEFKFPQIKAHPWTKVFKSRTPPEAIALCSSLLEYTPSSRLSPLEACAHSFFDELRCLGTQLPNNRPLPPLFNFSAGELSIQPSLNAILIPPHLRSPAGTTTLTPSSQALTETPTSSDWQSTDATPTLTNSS
UniProt P14616: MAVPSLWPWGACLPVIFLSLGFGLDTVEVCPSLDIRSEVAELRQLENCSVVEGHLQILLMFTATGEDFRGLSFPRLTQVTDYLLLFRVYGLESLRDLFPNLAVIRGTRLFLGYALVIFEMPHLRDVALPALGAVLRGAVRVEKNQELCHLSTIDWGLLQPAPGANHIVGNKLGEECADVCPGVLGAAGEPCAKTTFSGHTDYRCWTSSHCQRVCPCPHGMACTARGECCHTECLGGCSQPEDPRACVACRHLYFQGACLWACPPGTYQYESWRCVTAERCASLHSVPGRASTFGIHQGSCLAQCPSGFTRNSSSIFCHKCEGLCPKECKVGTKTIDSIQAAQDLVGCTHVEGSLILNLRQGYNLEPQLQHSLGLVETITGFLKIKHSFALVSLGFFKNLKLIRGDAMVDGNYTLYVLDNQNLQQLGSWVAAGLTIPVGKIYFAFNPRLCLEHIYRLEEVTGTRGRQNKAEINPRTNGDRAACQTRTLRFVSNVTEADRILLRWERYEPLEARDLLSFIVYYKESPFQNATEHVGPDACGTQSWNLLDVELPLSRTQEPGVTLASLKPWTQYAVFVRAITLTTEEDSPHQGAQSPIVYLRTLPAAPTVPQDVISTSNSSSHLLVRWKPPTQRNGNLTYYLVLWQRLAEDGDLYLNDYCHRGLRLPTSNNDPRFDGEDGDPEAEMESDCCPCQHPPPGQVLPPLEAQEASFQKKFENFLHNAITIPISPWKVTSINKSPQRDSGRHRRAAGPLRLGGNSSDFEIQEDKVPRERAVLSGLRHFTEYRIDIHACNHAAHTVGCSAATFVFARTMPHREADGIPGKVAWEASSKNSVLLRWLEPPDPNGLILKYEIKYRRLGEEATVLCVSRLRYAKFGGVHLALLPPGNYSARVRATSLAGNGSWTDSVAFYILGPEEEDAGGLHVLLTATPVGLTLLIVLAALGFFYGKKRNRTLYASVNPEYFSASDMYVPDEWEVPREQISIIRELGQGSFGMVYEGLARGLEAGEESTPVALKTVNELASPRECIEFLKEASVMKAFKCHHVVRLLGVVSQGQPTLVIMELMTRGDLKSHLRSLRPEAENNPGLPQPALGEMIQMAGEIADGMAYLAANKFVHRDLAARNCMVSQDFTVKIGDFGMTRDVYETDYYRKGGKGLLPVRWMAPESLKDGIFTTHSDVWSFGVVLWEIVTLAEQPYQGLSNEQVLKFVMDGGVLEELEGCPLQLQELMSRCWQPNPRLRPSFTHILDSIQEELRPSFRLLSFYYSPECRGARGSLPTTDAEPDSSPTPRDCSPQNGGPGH

Assays:
Assay in all cases: kinase-Nluc reporter destabilization hit call (1 = scored as downregulated) (binary); higher = compound decreases kinase abundance
Details in all cases: K562; 2-18 h
EGFR = EGFR (UniProt P00533)
EGFR_G719S = EGFR_G719S (UniProt P00533)
EGFR_G719S_T790M = EGFR_G719S_T790M (UniProt P00533)
EGFR_L718V = EGFR_L718V (UniProt P00533)
EGFR_L858R = EGFR_L858R (UniProt P00533)
EGFR_L861Q = EGFR_L861Q (UniProt P00533)
EGFR_T790M = EGFR_T790M (UniProt P00533)
EPHA2 = EPHA2 (UniProt P29317)
ERBB3 = ERBB3 (UniProt P21860)
[1] = molecular target: ERBB4_R711C (clone: ERBB4_mut) (UniProt Q15303)
ERN1 = ERN1 (UniProt O75460)
FGFR1 = FGFR1 (UniProt P11362)
FGFR2 = FGFR2 (UniProt P21802)
FGFR3 = FGFR3 (UniProt P22607)
FGR = FGR (UniProt P09769)
FLT3 = FLT3 (UniProt P36888)
FYN = FYN (UniProt P06241)
GSK3A = GSK3A (UniProt P49840)
HER2 = HER2 (UniProt P04626)
INSRR = INSRR (UniProt P14616)

SMILES	kinase-Nluc reporter destabilization hit call (EGFR)	kinase-Nluc reporter destabilization hit call (EGFR_G719S)	kinase-Nluc reporter destabilization hit call (EGFR_G719S_T790M)	kinase-Nluc reporter destabilization hit call (EGFR_L718V)	kinase-Nluc reporter destabilization hit call (EGFR_L858R)	kinase-Nluc reporter destabilization hit call (EGFR_L861Q)	kinase-Nluc reporter destabilization hit call (EGFR_T790M)	kinase-Nluc reporter destabilization hit call (EPHA2)	kinase-Nluc reporter destabilization hit call (ERBB3)	kinase-Nluc reporter destabilization hit call [1]	kinase-Nluc reporter destabilization hit call (ERN1)	kinase-Nluc reporter destabilization hit call (FGFR1)	kinase-Nluc reporter destabilization hit call (FGFR2)	kinase-Nluc reporter destabilization hit call (FGFR3)	kinase-Nluc reporter destabilization hit call (FGR)	kinase-Nluc reporter destabilization hit call (FLT3)	kinase-Nluc reporter destabilization hit call (FYN)	kinase-Nluc reporter destabilization hit call (GSK3A)	kinase-Nluc reporter destabilization hit call (HER2)	kinase-Nluc reporter destabilization hit call (INSRR)
Cc1cc(Nc2cc3ncccc3c(N[C@@H]3C[C@H]4CC[C@@H](C3)N4CCC#N)n2)n[nH]1 [Izencitinib] (10 µM)	inactive: 0	inactive: 0	inactive: 0	inactive: 0	inactive: 0	inactive: 0	inactive: 0	inactive: 0	inactive: 0	inactive: 0	inactive: 0	inactive: 0	inactive: 0	inactive: 0	inactive: 0	inactive: 0	inactive: 0	inactive: 0	inactive: 0	inactive: 0
Cc1ccc(NC(=S)NNc2c([N+](=O)[O-])cc(C(F)(F)F)cc2[N+](=O)[O-])cc1Cl (10 µM)	inactive: 0	inactive: 0	inactive: 0	inactive: 0	inactive: 0	inactive: 0	inactive: 0	inactive: 0	inactive: 0	inactive: 0	inactive: 0	inactive: 0	inactive: 0	inactive: 0	inactive: 0	inactive: 0	inactive: 0	inactive: 0	inactive: 0	inactive: 0
N#Cc1cccc(-c2c[nH]c3ncnc(N4CCOCC4)c23)c1 (10 µM)	inactive: 0	inactive: 0	inactive: 0	inactive: 0	inactive: 0	inactive: 0	inactive: 0	inactive: 0	inactive: 0	inactive: 0	inactive: 0	inactive: 0	inactive: 0	inactive: 0	inactive: 0	inactive: 0	inactive: 0	inactive: 0	inactive: 0	inactive: 0
O=C(O)CCc1ccc(O)c(O)c1 [Dihydrocaffeic acid] (10 µM)	inactive: 0	inactive: 0	inactive: 0	inactive: 0	inactive: 0	inactive: 0	inactive: 0	inactive: 0	inactive: 0	inactive: 0	inactive: 0	inactive: 0	inactive: 0	inactive: 0	inactive: 0	inactive: 0	inactive: 0	inactive: 0	inactive: 0	inactive: 0
CC(C)=CC(=O)CCC(=O)N1CCN(Cc2cc3nc(-c4cccc5[nH]ncc45)nc(N4CCOCC4)c3s2)CC1 (10 µM)	inactive: 0	active: 1	inactive: 0	inactive: 0	inactive: 0	inactive: 0	inactive: 0	inactive: 0	inactive: 0	inactive: 0	inactive: 0	inactive: 0	inactive: 0	inactive: 0	inactive: 0	inactive: 0	inactive: 0	inactive: 0	active: 1	inactive: 0
Cc1csc(-c2nnc(Nc3ccc(Oc4ncccc4-c4ccnc(N)n4)cc3)c3ccccc23)c1 (2.5 µM)	inactive: 0	inactive: 0	inactive: 0	inactive: 0	inactive: 0	inactive: 0	inactive: 0	inactive: 0	inactive: 0	inactive: 0	inactive: 0	inactive: 0	inactive: 0	inactive: 0	inactive: 0	inactive: 0	inactive: 0	inactive: 0	inactive: 0	inactive: 0
